Measurements from paper PMC2749441.

By UniProt entry, the sequences of proteins in these tests, tags left out. Residues count along the entry.
UniProt Q9QUG3, residues 26-155: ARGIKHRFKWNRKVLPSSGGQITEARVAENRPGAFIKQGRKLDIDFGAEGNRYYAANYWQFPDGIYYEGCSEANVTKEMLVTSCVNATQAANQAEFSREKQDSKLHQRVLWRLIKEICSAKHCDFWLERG

B1: endogenous wt Sho (protein, UniProt Q8BWU1 25-122)
chain: KGGRGGARGSARGVRGGARGASRVRVRPAPRYGSSLRVAAAGAAAGAAAGVAAGLATGSGWRRTSGPGELGLEDDENGAMGGNGTDRGVYSYWAWTSG
B2: family with sequence similarity 3, member C (protein, UniProt Q91VU0 25-227)
chain: QVFEIKMDASLGNLFARSALDSAIRSTKPPRYKCGISKACPEKHFAFKMASGAANVVGPKICLEDNVLMSGVKNNVGRGINIALVNGKTGEVIDTKFFDMWGGDVAPFIEFLKTIQDGTVVLMATYDDGATKLTDEARRLIAELGSTSITSLGFRDNWVFCGGKGIKTKSPFEQHIKNNKETNKYEGWPEVVEMEGCIPQKQD
B3: calnexin precursor (protein, UniProt P35564 21-591)
chain: HDGHDDDAIDIEDDLDDVIEEVEDSKSKSDASTPPSPKVTYKAPVPTGEVYFADSFDRGSLSGWILSKAKKDDTDDEIAKYDGKWEVDEMKETKLPGDKGLVLMSRAKHHAISAKLNKPFLFDTKPLIVQYEVNFQNGIECGGAYVKLLSKTAELSLDQFHDKTPYTIMFGPDKCGEDYKLHFIFRHKNPKTGVYEEKHAKRPDADLKTYFTDKKTHLYTLILNPDNSFEILVDQSVVNSGNLLNDMTPPVNPSREIEDPEDRKPEDWDERPKIADPDAVKPDDWDEDAPSKIPDEEATKPEGWLDDEPEYIPDPDAEKPEDWDEDMDGEWEAPQIANPKCESAPGCGVWQRPMIDNPNYKGKWKPPMIDNPNYQGIWKPRKIPNPDFFEDLEPFKMTPFSAIGLELWSMTSDIFFDNFIISGDRRVVDDWANDGWGLKKAADGAAEPGVVLQMLEAAEERPWLWVVYILTVALPVFLVILFCCSGKKQSNAMEYKKTDAPQPDVKDEEGKEEEKNKRDEEEEEEKLEEKQKSDAEEDGVTGSQDEEDSKPKAEEDEILNRSPRNRKPRRE
B4: protein disulfide isomerase associated 6 (protein, UniProt Q922R8 20-440)
chain: LYSSSDDVIELTPSNFNREVIQSDGLWLVEFYAPWCGHCQRLTPEWKKAATALKDVVKVGAVNADKHQSLGGQYGVQGFPTIKIFGANKNKPEDYQGGRTGEAIVDAALSALRQLVKDRLGGRSGGYSSGKQGRGDSSSKKDVVELTDDTFDKNVLDSEDVWMVEFYAPWCGHCKNLEPEWAAAATEVKEQTKGKVKLAAVDATVNQVLASRYGIKGFPTIKIFQKGESPVDYDGGRTRSDIVSRALDLFSDNAPPPELLEIINEDIAKKTCEEHQLCVVAVLPHILDTGAAGRNSYLEVLLKLADKYKKKMWGWLWTEAGAQYELENALGIGGFGYPAMAAINARKMKFALLKGSFSEQGINEFLRELSFGRGSTAPVGGGSFPTITPREPWDGKDGELPVEDDIDLSDVELDDLEKDEL
B5: complement component 1, q subcomponent binding protein (protein, UniProt O35658 71-278)
chain: LHTEGDKAFVEFLTDEIKEEKKIQKHKSLPKMSGDWELEVNGTEAKLLRKVAGEKITVTFNINNSIPPTFDGEEEPSQGQKAEEQEPERTSTPNFVVEVTKTDGKKTLVLDCHYPEDEIGHEDEAESDIFSIKEVSFQATGDSEWRDTNYTLNTDSLDWALYDHLMDFLADRGVDNTFADELVELSTALEHQEYITFLEDLKSFVKNQ
B6: hypoxia up-regulated 1 (protein, UniProt Q9JKR6 33-999)
chain: LAVMSVDLGSESMKVAIVKPGVPMEIVLNKESRRKTPVTVTLKENERFLGDSAAGMAIKNPKATLRYFQHLLGKQADNPHVALYRSRFPEHELIVDPQRQTVRFQISPQLQFSPEEVLGMVLNYSRSLAEDFAEQPIKDAVITVPAFFNQAERRAVLQAARMAGLKVLQLINDNTATALSYGVFRRKDINSTAQNVMFYDMGSGSTVCTIVTYQTVKTKEAGMQPQLQIRGVGFDRTLGGLEMELRLREHLAKLFNEQRKGQKAKDVRENPRAMAKLLREANRLKTVLSANADHMAQIEGLMDDVDFKAKVTRVEFEELCADLFDRVPGPVQQALQSAEMSLDQIEQVILVGGATRVPKVQEVLLKAVGKEELGKNINADEAAAMGAVYQAAALSKAFKVKPFVVRDAVIYPILVEFTREVEEEPGLRSLKHNKRVLFSRMGPYPQRKVITFNRYSHDFNFHINYGDLGFLGPEDLRVFGSQNLTTVKLKGVGESFKKYPDYESKGIKAHFNLDESGVLSLDRVESVFETLVEDSPEEESTLTKLGNTISSLFGGGTSSDAKENGTDAVQEEEESPAEGSKDEPAEQGELKEEAEPPAEETSQPPPSEPKGDAAREGEKPDEKESGDKPEAQKPNEKGQAGPEGAAPAPEEDKKPKPARKQKMVEEIGVELAVLDLPDLPEDELARSVQKLEELTLRDLEKQEREKAANSLEAFIFETQDKLYQPEYQEVSTEEQREEISGKLSATSTWLEDEGFGATTVMLKDKLAELRKLCQGLFFRVEERRKWPERLSALDNLLNHSSIFLKGARLIPEMDQVFTEVEMTTLEKVINDTWAWKNATLAEQAKLPATEKPVLLSKDIEAKMMALDREVQYLLNKAKFTKPRPRPKDKNGTRAEPPLNASAGDQEEKVIPPAGQTEEAKPILEPDKEETGTEPADSEPLELGGPGAGPEQEEQSAGQKRPSKNDEL
B7: brain abundant, membrane attached signal protein 1 (protein, UniProt Q91XV3 1-226)
chain: MGGKLSKKKKGYNVNDEKAKDKDKKAEGAGTEEEGTPKESEPQAAADATEVKESTEEKPKDAADGEAKAEEKEADKAAAAKEEAPKAEPEKSEGAAEEQPEPAPAPEQEAAAPGPAAGGEAPKAGEASAESTGAADGAAPEEGEAKKTEAPAAAGPEAKSDAAPAASDSKPSSAEPAPSSKETPAASEAPSSAAKAPAPAAPAAAEPQAEAPAAAASSEQSVAVKE

Tests used:
[1] = target: FLAG-Dpl (mouse) (UniProt Q9QUG3); test: affinity purification with mass spectrometry
[2] = target: FLAG-Dpl (mouse) (UniProt Q9QUG3); test: affinity purification with mass spectrom

| Binder | binding [1] | binding [2] |
| --- | --- | --- |
| B1 | binds |  |
| B2 |  | binds |
| B3 |  | binds |
| B4 |  | binds |
| B5 |  | binds |
| B6 |  | binds |
| B7 |  | binds |

Results are given in words; binding and its absence hold for the method and conditions named. In cells and extracts the contact can be indirect. Here binding means that the protein was enriched with, or labelled near, the bait; the list need not be complete.
